Measurements from PMC7819943, “Rice protein-binding microarrays: a tool to detect cis-acting elements near promoter regions in rice”.
The list shows a part of the results.

Protein sequences, listed by entry. Tags and fused reporters are not part of them.
UniProt Q0JBA9, entry or part of it: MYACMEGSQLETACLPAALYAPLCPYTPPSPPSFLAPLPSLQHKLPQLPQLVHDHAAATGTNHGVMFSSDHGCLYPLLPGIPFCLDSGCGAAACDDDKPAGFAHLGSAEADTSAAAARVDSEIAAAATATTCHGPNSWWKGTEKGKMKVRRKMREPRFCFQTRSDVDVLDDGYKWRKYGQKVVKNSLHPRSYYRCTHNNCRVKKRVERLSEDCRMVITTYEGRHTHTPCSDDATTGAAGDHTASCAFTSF

Each sequence was assayed against OsWRKY34 (Oryza sativa, UniProt Q0JBA9 1-250) (assay: protein-binding microarray (RPBM); PBS, 2% BSA, 51.3 ng/ul salmon testes DNA, 50 uM zinc acetate, 200 nM TF, 25 C, 1 h; high values mean tight binding). Details: protein: recombinant; tags: N-terminal polyhistidine and DsRed monomer fusion (pET32a); label: CyDye5-dUTP incorporated in the synthesized complementary strand; 3' TTTTT single-stranded linker to array surface; dsDNA, one strand shown.
How it was run: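 A custom Agilent array was converted to double-stranded form by primer extension with Cy5-dUTP and blocked with 2% BSA. Protein at 200 nM in PBS with 2% BSA, salmon testes DNA and 50 µM zinc acetate was applied for 1 h at 25 °C, followed by washing. The proteins were polyhistidine–DsRed N-terminal fusions of transcription factors, expressed in E. coli BL21-CodonPlus and Ni–NTA-purified. The binding signal is per-feature fluorescence intensity (arbitrary units) from an Axon 4000B scanner.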

Row | Sequence | binding signal
1 | AAAACCATCCTAATCCCTGGCATTTGACACAGCCAAACAGCGGAGTCACCTAGTGCAG | 8930 fluorescence intensity (a.u.)
2 | AGCCTGAACGTATGGTAGAGGTGACACGACACGATCAACACGGAGTCACCTAGTGCAG | 8270 fluorescence intensity (a.u.)
3 | GTGGTACTTTCCCAATTGTTCTGCTATCCCTGTTTTATGGCGGAGTCACCTAGTGCAG | 9400 fluorescence intensity (a.u.)
4 | TCGGCTTCACTTGGAACAAATCGTCATCATCCTCGCCGCCCGGAGTCACCTAGTGCAG | 8370 fluorescence intensity (a.u.)
5 | GGGCAGCACACATTGATCATACCACACACTGTTCCCTGCACGGAGTCACCTAGTGCAG | 12200 fluorescence intensity (a.u.)
6 | AACTTTTACTACCTTTTAGTACTATATCATTAGTTTTCTTCGGAGTCACCTAGTGCAG | 11300 fluorescence intensity (a.u.)
7 | TCCTTGGGCGCCATAATGATCTGTTAACCACACCTTTTCTCGGAGTCACCTAGTGCAG | 8480 fluorescence intensity (a.u.)
8 | GTGGTTGGTTTCTTGTTTAGCTGGATTTGGTGCAAAAGCGCGGAGTCACCTAGTGCAG | 12700 fluorescence intensity (a.u.)
9 | CGTATCTCAATGACATATAAGACCCACATGAGTCAATAACCGGAGTCACCTAGTGCAG | 8590 fluorescence intensity (a.u.)
10 | GGCGGTTGTGGAGGCGCTGGGGCCGGTGGTCGGGGCGGCACGGAGTCACCTAGTGCAG | 11400 fluorescence intensity (a.u.)
11 | TCGGTCAACTCACAAATTTGGTCTCTCTTGACATTTCCTTCGGAGTCACCTAGTGCAG | 11800 fluorescence intensity (a.u.)
12 | TCTCAGCATACCCCTTTTCACCTTTTTGCCATAATTAAAACGGAGTCACCTAGTGCAG | 9410 fluorescence intensity (a.u.)
13 | TCCCACGCGCCTTTTCTTCCCACGTGCATCTGTCAGTGACCGGAGTCACCTAGTGCAG | 9480 fluorescence intensity (a.u.)
14 | AGGGTTTGTTTGTTTATTTGTTTGTTTGATCGGTGTGGGGCGGAGTCACCTAGTGCAG | 13300 fluorescence intensity (a.u.)
15 | TTTTATTATGTCGATTTTTTTTCCTTACGATCCTCTTTATCGGAGTCACCTAGTGCAG | 9760 fluorescence intensity (a.u.)
16 | ATCTTTTATTTTTTACTGAAGTTTCTGTTTTGTTTTCAGTCGGAGTCACCTAGTGCAG | 13200 fluorescence intensity (a.u.)
17 | CGGATGGCTGTCCTGCTCTTGCGCTCATGCATGTCATCTCCGGAGTCACCTAGTGCAG | 10600 fluorescence intensity (a.u.)
18 | CGATTGCCTCAACCACCCGGTCACTGTGCAGGCGACCTGTCGGAGTCACCTAGTGCAG | 9060 fluorescence intensity (a.u.)
19 | ACCGTTCACTTTTTCCACCTACCTCCACTTCTCAACCAATCGGAGTCACCTAGTGCAG | 13500 fluorescence intensity (a.u.)
20 | ATCCTGGTCATCCAAAAGCCCAAACAACACTTCTACTTATCGGAGTCACCTAGTGCAG | 8380 fluorescence intensity (a.u.)
21 | TATTTATACAGCGCCGTATCCTTCAGTCTGCACACAAGGACGGAGTCACCTAGTGCAG | 9820 fluorescence intensity (a.u.)

From no. 1 to 2, as listed above:
Row | Sequence | binding signal
1 | AAAACCATCCTAATCCCTGGCATTTGACACAGCCAAACAGCGGAGTCACCTAGTGCAG | 8930 fluorescence intensity (a.u.)
2 | AGCCTGAACGTATGGTAGAGGTGACACGACACGATCAACACGGAGTCACCTAGTGCAG | 8270 fluorescence intensity (a.u.)

Continued.

Row | Sequence | binding signal
22 | TGGTGGTTTCGAGATTTCTCATTGTCTGTTATCTGAAACCCGGAGTCACCTAGTGCAG | 8840 fluorescence intensity (a.u.)
23 | TTCGTCTTCCTCTAGCCTCACTCAGCATCTCCGTTGCACCCGGAGTCACCTAGTGCAG | 9960 fluorescence intensity (a.u.)
24 | TGGCTGCACCTTCGTCTCCATCGATCGATCGATCCACCATCGGAGTCACCTAGTGCAG | 8030 fluorescence intensity (a.u.)
25 | GCTATTGACTGTATCTAGTACTATTTCAAATTGTCAACGACGGAGTCACCTAGTGCAG | 9420 fluorescence intensity (a.u.)
26 | ACTTGTATGATCAATTTTGTTCTTTTGTAGGATCAATGTTCGGAGTCACCTAGTGCAG | 8580 fluorescence intensity (a.u.)
27 | ATGAACTTACCTTGCTGATTTTAGACATTTTGTGATTTAACGGAGTCACCTAGTGCAG | 8360 fluorescence intensity (a.u.)
28 | GGACTTGACTGTTTCAGATATAAGCACTCACTCTTGTTTTCGGAGTCACCTAGTGCAG | 9490 fluorescence intensity (a.u.)
29 | TCCCACTCCCACTGGCCTACCGTTTCCAATCATCCACGCCCGGAGTCACCTAGTGCAG | 8480 fluorescence intensity (a.u.)
30 | TGATTGGATTTATAGGTGAATTACAGGTGTTGTCATTTTACGGAGTCACCTAGTGCAG | 8310 fluorescence intensity (a.u.)
31 | CTCCGTTTTAGGTTATAAGATATTTTTGACTTTGGTCAAACGGAGTCACCTAGTGCAG | 8470 fluorescence intensity (a.u.)
32 | TTCATGATCATGCTTTGCCTTGACCAGCAAACTCTCAGCTCGGAGTCACCTAGTGCAG | 9240 fluorescence intensity (a.u.)
33 | CTGTCCCTCTGAATATTTGTTTTGGTTGTTCCTTGCTGTACGGAGTCACCTAGTGCAG | 11500 fluorescence intensity (a.u.)
34 | ATCTACTTATGTCACCCACTCTTAGCCAATATCATTCGCTCGGAGTCACCTAGTGCAG | 8030 fluorescence intensity (a.u.)
35 | TCATGGGTGGGGCAAGCTCTTCTATTCTGGTTCATGGTTTCGGAGTCACCTAGTGCAG | 15700 fluorescence intensity (a.u.)
36 | GTTTCGGTTTGAATGAGTTTTGATTTTGATATTGGAAACTCGGAGTCACCTAGTGCAG | 8220 fluorescence intensity (a.u.)
37 | GACATGATACCATTCTCGACCGTTTTCATCTCGTAGTTGCCGGAGTCACCTAGTGCAG | 11000 fluorescence intensity (a.u.)
38 | ACCTCCCTTGCTCTCTTCTTGATTCATCTTGCCCTCAAAGCGGAGTCACCTAGTGCAG | 8870 fluorescence intensity (a.u.)
39 | GTACTGTAGCTCTCTGACTTTACACATGTAAATCCTCTGACGGAGTCACCTAGTGCAG | 8040 fluorescence intensity (a.u.)
40 | AATCCATCCGCTTTTGCCATACATCCTTCGTCCAAGATGCCGGAGTCACCTAGTGCAG | 9430 fluorescence intensity (a.u.)
41 | CTTCCCTTGAGGCTACACGTCTACATTGGCACTCGTTTTCCGGAGTCACCTAGTGCAG | 8060 fluorescence intensity (a.u.)
42 | GGTGGTTGGTCTTGTCATTGCTCGTGCATGTCAGCACAGTCGGAGTCACCTAGTGCAG | 11100 fluorescence intensity (a.u.)
